Results as given in US10011814B2, “Salt formulations for the fermentation of marine microorganisms” (Triphase Research and Development I Corp., priority 2006, dated 2018).
Marks after values point to notes of the source that are not given here.

System: Salinispora tropica NPS021184
Assay: Production of Salinosporamide A and analogs in shake flask or tube culture; titers by HPLC of EtOAc extract
Details: for Max Titers: Ex.1 Table 2; for Max Avg Titer: Ex.2 Table 3
Experimental: Seed cultures were prepared by inoculating frozen stock of Salinispora tropica NPS021184 into seed medium.
(§1) The first seed cultures (either 10 mL medium in a 50-mL tube or 100 mL medium in a 500-mL Erlenmeyer flask) were incubated for 3 to 4 days before inoculating into the second seed media with the same composition as the first seed cultures. The second seed cultures (100 mL medium in a 500-mL Erlenmeyer flask) were incubated for two days before inoculating into the production medium (100 mL medium in a 500-mL Erlenmeyer flask).
The chemically defined salt formulation included: […]
(§2) 3.5 mL of the fermentation culture was mixed with equal volume of EtOAc in an extraction tube to extract the various metabolites from the production culture. The mixture was shaken on a shaker for one hr. An aliquot of the extract (1 mL) was removed and dried under a stream of nitrogen. The dried extract was stored at −20° C. freezer before HPLC analysis. The dried extract was resuspended in 320 μL DMSO and injected into HPLC using the 00TF14 method for analysis.
The production of Salinosporamide A, NPI-0047 and NPI-2065 was monitored by Agilent HP1100 HPLC using an ACE C-18 reversed-phase column (4.6×150 mm), and solvent system consisting of water (0.01% TFA) as solvent A and acetonitrile (0.01% TFA) as solvent B. The elution was started at 100% solvent A for 1 min, 100% solvent A to 35% solvent A gradient in 7 min, held at 35% solvent A for 11 min, 35% solvent A to 100% solvent B in 8 min and held at 100% solvent B for 9 min at a flow rate of 1.5 mL/min with the detector wavelength set at 210 nm and column temperature 35° C.
The first seed cultures (either 10 mL medium in a 50-mL tube or 100 ml medium in a 500-ml Erlenmeyer flask) were incubated for 3 to 4 days before inoculating into the second seed media with the same composition as the first seed cultures. The second seed cultures (100 mL medium in a 500-mL Erlenmeyer flask) were incubated for two days before inoculating into the production medium (100 mL medium in a 500-mL Erlenmeyer flask).
as §1, with “in a 50-ml tube or” for “in a 50-mL tube or”, “inoculating into production medium” for “inoculating into the production medium”
as §2, with “shaken” for “shaken on a shaker”, “1” for “one”, “[…]” for “μL”, “TFS7” for “00TF14”
The production of Salinosporamide A, NPI-0047 and NPI-2065 was monitored by Agilent HP1100 HPLC using an ACE C-18 reversed-phase column (4.6×150 mm), and isocratic solvent system consisting of 67% water (0.01% TFA) and 33% acetonitrile (0.01% TFA). The flow rate was 1.5 mL/min for 15 min with the detector wavelength set at 210 nm and column temperature 35° C.
3.5 mL of the fermentation culture was mixed with equal volume of EtOAc in an extraction tube to extract the various metabolites from the production culture. The mixture was shaken on the shaker for 1 hr. An aliquot of the extract (1 mL) was removed and dried under a stream of nitrogen. The dried extract was stored at −20° C. freezer before HPLC analysis. The dried extract was resuspended in 320 μL DMSO and injected into HPLC using the TFS7 method for analysis. […]

C[C@@]12OC(=O)[C@]1([C@@H](O)[C@@H]1C=CCCC1)NC(=O)[C@@H]2CCCl [Salinosporamide A]
Titers (maximum concentrations) (BAS.PD + 0.1% Valeric acid): 131 mg/L
Maximum Titer (Ex.1 Table 1, shake flask, 104 μg/L CoCl2·6H2O in production medium): 251.7 mg/L
Maximum Titer (Ex.1 Table 1, shake flask, 1.04 mg/L CoCl2·6H2O in production medium): 253.4 mg/L
Maximum Titer (Ex.1 Table 1, shake flask, 10.4 mg/L CoCl2·6H2O in production medium): 244.6 mg/L
Maximum Titer (Ex.1 Table 1, shake flask, no CoCl2·6H2O addition to production medium): 248.0 mg/L
Max Titers (2.6 μg/L CoCl2·6H2O in production medium): 275.3 mg/L
Max Titers (5.2 μg/L CoCl2·6H2O in production medium): 247.9 mg/L
Max Titers (6.5 μg/L CoCl2·6H2O in production medium): 275.7 mg/L
Max Titers (13 μg/L CoCl2·6H2O in production medium): 271.3 mg/L
Max Titers (26 μg/L CoCl2·6H2O in production medium): 261.4 mg/L
Max Titers (52 μg/L CoCl2·6H2O in production medium): 259.9 mg/L
Max Titers (104 μg/L CoCl2·6H2O in production medium): 264.2 mg/L
Max Titers (208 μg/L CoCl2·6H2O in production medium): 272.8 mg/L
Max Titers (416 μg/L CoCl2·6H2O in production medium): 249.1 mg/L
Max Titers (shake flask, control, no CoCl2·6H2O in production medium): 272.3 mg/L
Max Avg Titer (CoCl2·6H2O in seed medium 0 μg/L, 52 μg/L in production medium): 291.8 mg/L
Max Avg Titer (CoCl2·6H2O in seed medium 2.6 μg/L, 52 μg/L in production medium): 296.8 mg/L
Max Avg Titer (CoCl2·6H2O in seed medium 5.2 μg/L, 52 μg/L in production medium): 306.0 mg/L
Max Avg Titer (CoCl2·6H2O in seed medium 13 μg/L, 52 μg/L in production medium): 299.4 mg/L
Max Avg Titer (CoCl2·6H2O in seed medium 26 μg/L, 52 μg/L in production medium): 366.2 mg/L
Max Avg Titer (CoCl2·6H2O in seed medium 52 μg/L, 52 μg/L in production medium): 326.6 mg/L
Max Avg Titer (CoCl2·6H2O in seed medium 104 μg/L, 52 μg/L in production medium): 347.0 mg/L
Max Avg Titer (CoCl2·6H2O in seed medium 208 μg/L, 52 μg/L in production medium): 368.5 mg/L
Max Avg Titer (CoCl2·6H2O in seed medium 416 μg/L, 52 μg/L in production medium): 321.2 mg/L
Maximum Titer (Ex.20, NPS21184, detected at 24 g/L NaCl): 295 mg/L
Titer (Ex.20, NPS21184, production medium supplemented with 5 g/L NaCl): 5.4 mg/L
Titer (Ex.34, NPS21184, Production Medium D with Amberlite XAD-7 resin, shake flask): 350 to 400 mg/L
Titer (Ex.4 Table 9, Chemically Defined Salt Formulation + Na2SO4 + 52 μg/L CoCl2·6H2O (Medium Lo.Maz, low chloride)): 217 mg/L
Titer (Ex.4 Table 9, Chemically Defined Salt Formulation + NaCl + 52 μg/L CoCl2·6H2O, average of two experiments): 279* mg/L
Titer (Ex.4 Table 9, production medium with INSTANT OCEAN): 228 mg/L
Titer (Ex.4 Table 9, production medium: Chemically Defined Salt Formulation + NaCl): 248 mg/L
Titer (Ex.5 Table 12, seed Lo.BNA, production SHY.KcMC, 16 mM sodium by ICP-MS, culture age 3 days): 109 mg/L
Titer (Ex.5 Table 12, seed Lo.BNA, production SHY.KcMC, 16 mM sodium by ICP-MS, culture age 4 days): 187 mg/L
Titer (Ex.5 Table 12, seed Lo.BNA, production SHY.KcMC, 16 mM sodium by ICP-MS, culture age 5 days): 226 mg/L
Titer (Ex.5 Table 12, seed Lo.BNA, production SHY.KcMC, 16 mM sodium by ICP-MS, culture age 6 days): 239 mg/L
Titers (Ex.6 Table 13, washed cells, seed A1.Kc4C, production SHY.KcMC, 11 mM sodium by ICP-MS, culture age 3 days): 45 mg/L
Titers (Ex.6 Table 13, washed cells, seed A1.Kc4C, production SHY.KcMC, 11 mM sodium by ICP-MS, culture age 4 days): 100 mg/L
Titers (Ex.6 Table 13, washed cells, seed A1.Kc4C, production SHY.KcMC, 11 mM sodium by ICP-MS, culture age 5 days): 170 mg/L
Titers (Ex.6 Table 13, washed cells, seed A1.Kc4C, production SHY.KcMC, 11 mM sodium by ICP-MS, culture age 6 days): 176 mg/L
Titers (Ex.8 Table 16, seed SHY.KCD, production SHY.KcMC, 11 mM sodium by ICP-MS, culture age 3 days): 88 mg/L
Titers (Ex.8 Table 16, seed SHY.KCD, production SHY.KcMC, 11 mM sodium by ICP-MS, culture age 4 days): 188 mg/L
Titers (Ex.8 Table 16, seed SHY.KCD, production SHY.KcMC, 11 mM sodium by ICP-MS, culture age 5 days): 211 mg/L
Titers (Ex.8 Table 16, seed SHY.KCD, production SHY.KcMC, 11 mM sodium by ICP-MS, culture age 6 days): 243 mg/L
Titers (INSTANT OCEAN-based media, day 4, condition 1 (Control): seed no cobalt addition, production no cobalt addition): 275 mg/L
Titers (INSTANT OCEAN-based media, day 4, condition 2: seed no cobalt addition, production +13 μg/L CoCl2•6H2O): 275 mg/L
Titers (INSTANT OCEAN-based media, day 4, condition 3: seed no cobalt addition, production +52 μg/L CoCl2•6H2O): 244 mg/L
Titers (INSTANT OCEAN-based media, day 4, condition 4: seed no cobalt addition, production +208 μg/L CoCl2•6H2O): 244 mg/L
Titers (INSTANT OCEAN-based media, day 4, condition 5: seed +52 μg/L CoCl2•6H2O, production no cobalt addition): 281 mg/L
Titers (INSTANT OCEAN-based media, day 4, condition 6: seed +52 μg/L, production +13 μg/L CoCl2•6H2O): 261 mg/L
Titers (INSTANT OCEAN-based media, day 4, condition 7: seed +52 μg/L, production +52 μg/L CoCl2•6H2O): 252 mg/L
Titers (INSTANT OCEAN-based media, day 4, condition 8: seed +5 μg/L, production +208 μg/L CoCl2•6H2O): 256 mg/L
Titers (INSTANT OCEAN-based media, day 4, condition 9: seed +208 μg/L CoCl2•6H2O, production no cobalt addition): 257 mg/L
Titers (INSTANT OCEAN-based media, day 4, condition 10: seed +208 μg/L, production +13 μg/L CoCl2•6H2O): 256 mg/L
Titers (INSTANT OCEAN-based media, day 4, condition 11: seed +208 μg/L, production +52 μg/L CoCl2•6H2O): 265 mg/L
Titers (INSTANT OCEAN-based media, day 4, condition 12: seed +208 μg/L, production +208 μg/L CoCl2•6H2O): 246 mg/L
Maximum Titer (Instant Ocean based media, 0x Vitamin B12: seed 0, production 0): 252 mg/L
Maximum Titer (Instant Ocean based media, 1x Vitamin B12: seed and production 0.296 mg/L (0.22 μM)): 266 mg/L
Maximum Titer (Instant Ocean based media, 1x vitamin B12P: seed 0, production 0.296 mg/L (0.22 μM) Vitamin B12): 231 mg/L
Maximum Titer (Instant Ocean based media, 4x Vitamin B12: seed and production 1.185 mg/L (0.88 μM)): 266 mg/L
Maximum Titer (Instant Ocean based media, 10x Vitamin B12: seed and production 2.96 mg/L (2.2 μM)): 247 mg/L
Titers (maximum concentrations) (LoCl.PD + 0.1% Valeric acid): 45 mg/L
Titer (NPS21184, CoCl2•6H2O 0 in seed medium, 0 in production medium): 258 mg/L
Titer (NPS21184, CoCl2•6H2O 208 μg/L in seed medium, 52 μg/L in production medium): 292 mg/L
Titer (NPS21184, production medium with salt formulation, NaCl 0 g/L): 0 mg/L
Titer (NPS21184, production medium with salt formulation, NaCl 5 g/L): 5.4 mg/L
Titer (NPS21184, production medium with salt formulation, NaCl 10 g/L): 235 mg/L
Titer (NPS21184, production medium with salt formulation, NaCl 15 g/L): 288 mg/L
Titer (NPS21184, production medium with salt formulation, NaCl 20 g/L): 286 mg/L
Titer (NPS21184, production medium with salt formulation, NaCl 24 g/L): 295 mg/L
Titer (NPS21184, production medium with salt formulation, NaCl 30 g/L): 223 mg/L
Maximum Titer (defined salt formulation based media, 1× CoCl2•6H2O: seed and production 52 μ/L (0.22 μM) CoCl2•6H2O): 297 mg/L
Maximum Titer (defined salt formulation based media, 1× vitamin B12: seed and production 0.296 mg/L (0.22 μM) Vitamin B12): 304 mg/L
Maximum Titer (defined salt formulation based media, Control: no vitamin B12 or cobalt supplement): 277 mg/L
Titers (maximum concentrations) (low chloride production medium LoCl.PD, no valeric acid): 96 mg/L
Titers (maximum concentrations) (saline production medium BAS.PD, no valeric acid): 274 mg/L
Maximum Titer (time of XAD-7 resin addition 24 h): 275 mg/L
Maximum Titer (time of XAD-7 resin addition 48 h): 224 mg/L
Maximum Titer (time of XAD-7 resin addition 72 h): 108 mg/L
